Data taken from publication PMC4066752.
Results are given in words; binding and its absence hold for the method and conditions named. For part of these data: Binding seen in cells or lysates may run through a third protein. Some entries that bind do so weakly or less than the wild type.

Sequences of proteins named here, by UniProt entry; tags and fusion partners are left off.
UniProt P61244: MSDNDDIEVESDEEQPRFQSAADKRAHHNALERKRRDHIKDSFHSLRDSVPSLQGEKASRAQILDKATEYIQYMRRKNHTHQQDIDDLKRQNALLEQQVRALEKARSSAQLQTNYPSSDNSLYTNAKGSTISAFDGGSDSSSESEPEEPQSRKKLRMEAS
UniProt P19338: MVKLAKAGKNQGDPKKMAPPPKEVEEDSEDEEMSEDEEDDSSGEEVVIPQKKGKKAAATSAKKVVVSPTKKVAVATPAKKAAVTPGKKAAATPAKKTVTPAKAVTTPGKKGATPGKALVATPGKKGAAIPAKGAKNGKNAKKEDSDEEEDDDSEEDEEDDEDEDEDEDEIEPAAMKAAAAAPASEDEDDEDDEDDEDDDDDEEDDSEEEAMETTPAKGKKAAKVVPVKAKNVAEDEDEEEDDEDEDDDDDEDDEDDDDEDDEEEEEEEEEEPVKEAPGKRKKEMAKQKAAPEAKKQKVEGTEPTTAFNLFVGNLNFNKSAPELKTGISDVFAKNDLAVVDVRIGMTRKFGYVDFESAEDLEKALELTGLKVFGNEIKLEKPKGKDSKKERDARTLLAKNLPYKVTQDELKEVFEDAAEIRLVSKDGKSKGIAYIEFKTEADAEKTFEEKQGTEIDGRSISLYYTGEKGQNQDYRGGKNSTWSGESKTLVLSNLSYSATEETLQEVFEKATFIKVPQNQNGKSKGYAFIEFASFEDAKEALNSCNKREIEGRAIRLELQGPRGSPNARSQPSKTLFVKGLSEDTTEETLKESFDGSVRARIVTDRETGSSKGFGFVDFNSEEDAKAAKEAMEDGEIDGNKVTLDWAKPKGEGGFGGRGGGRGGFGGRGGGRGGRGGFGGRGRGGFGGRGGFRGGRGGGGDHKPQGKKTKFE
UniProt P01106: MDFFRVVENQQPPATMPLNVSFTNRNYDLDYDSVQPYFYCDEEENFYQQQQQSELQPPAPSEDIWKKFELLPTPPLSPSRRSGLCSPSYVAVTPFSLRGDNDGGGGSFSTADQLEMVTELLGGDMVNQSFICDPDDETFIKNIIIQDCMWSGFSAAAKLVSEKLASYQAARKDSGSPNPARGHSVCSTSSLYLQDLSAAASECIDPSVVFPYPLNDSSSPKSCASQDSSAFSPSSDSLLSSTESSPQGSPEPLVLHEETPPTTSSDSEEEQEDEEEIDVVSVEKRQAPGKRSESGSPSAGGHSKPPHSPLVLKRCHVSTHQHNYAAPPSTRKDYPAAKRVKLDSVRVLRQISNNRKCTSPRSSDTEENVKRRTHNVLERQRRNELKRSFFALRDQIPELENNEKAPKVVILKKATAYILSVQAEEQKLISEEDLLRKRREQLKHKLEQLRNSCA
UniProt Q9UBL3: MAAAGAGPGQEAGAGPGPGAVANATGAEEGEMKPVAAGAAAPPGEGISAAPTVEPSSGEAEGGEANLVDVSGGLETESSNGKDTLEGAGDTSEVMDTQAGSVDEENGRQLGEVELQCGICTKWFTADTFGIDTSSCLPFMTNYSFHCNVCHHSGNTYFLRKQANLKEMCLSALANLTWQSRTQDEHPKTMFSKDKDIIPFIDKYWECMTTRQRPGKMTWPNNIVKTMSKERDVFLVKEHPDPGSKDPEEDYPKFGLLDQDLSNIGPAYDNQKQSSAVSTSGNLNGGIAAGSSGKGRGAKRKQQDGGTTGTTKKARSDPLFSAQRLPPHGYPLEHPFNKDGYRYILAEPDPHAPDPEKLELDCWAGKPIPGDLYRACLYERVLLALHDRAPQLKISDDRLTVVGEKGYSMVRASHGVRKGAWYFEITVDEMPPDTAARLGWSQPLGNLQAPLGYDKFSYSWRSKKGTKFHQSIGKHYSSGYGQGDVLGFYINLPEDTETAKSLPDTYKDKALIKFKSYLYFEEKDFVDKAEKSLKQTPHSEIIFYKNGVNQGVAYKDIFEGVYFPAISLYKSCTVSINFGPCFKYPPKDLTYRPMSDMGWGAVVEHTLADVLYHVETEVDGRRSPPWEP

Key:
[1] = target: MAX (human (endogenous in Jurkat T, HEK293)) (UniProt P61244); test: co-IP; endogenous proteins; whole-cell lysates in F-buffer (10 mM Tris-HCl pH 7.05, 50 mM NaCl, 1% Triton X-100) of U2OS, Jurkat T or HEK293 cells; IP with MYC- (mAb 4H3), MAX- or ASH2L-specific (mAb 4C5) antibodies, HA-tag antibodies as control; western blot
[2] = target: nucleolin (human (endogenous in U2OS)) (UniProt P19338); test: as above
[3] = target: MYC (human (endogenous in U2OS, Jurkat T, HEK293)) (UniProt P01106); test: as above
[4] = target: MYC (tetracycline-regulated transgene in P493-6 B cells) (UniProt P01106); test: re-ChIP (sequential chromatin immunoprecipitation); P493-6 B cells with or without MYC induction, 1% formaldehyde cross-linked, sheared chromatin; first IP ASH2L or MYC, release with 1% SDS and 10 mM DTT, second IP MYC, ASH2L, CBP/p300 or IgG; qPCR of CCND2, ODC and NCL promoter regions
[5] = target: MYC (human (endogenous in U2OS, Jurkat T, HEK293)) (UniProt P01106); test: proximity ligation; in situ PLA (DuolinkII) in U2OS cells; mAb 4C5 for ASH2L and pAb N262 for MYC; one primary antibody alone as negative control
[6] = target: ASH2L (human (endogenous in U2OS, Jurkat T, HEK293, P493-6)) (UniProt Q9UBL3); test: co-IP; endogenous proteins; whole-cell lysates in F-buffer (10 mM Tris-HCl pH 7.05, 50 mM NaCl, 1% Triton X-100) of U2OS, Jurkat T or HEK293 cells; IP with MYC- (mAb 4H3), MAX- or ASH2L-specific (mAb 4C5) antibodies, HA-tag antibodies as control; western blot

Measured: binding

ASH2L (from UniProt Q9UBL3 1-628)
binds: [1] | [2] | [3] | [4] | [5]

MYC (from UniProt P01106 1-454)
binds: [6]
